## Screening data, single-dose tests

Amino acid sequences for entries named in this document (tags omitted).
UniProt P9WFT3, whole entry: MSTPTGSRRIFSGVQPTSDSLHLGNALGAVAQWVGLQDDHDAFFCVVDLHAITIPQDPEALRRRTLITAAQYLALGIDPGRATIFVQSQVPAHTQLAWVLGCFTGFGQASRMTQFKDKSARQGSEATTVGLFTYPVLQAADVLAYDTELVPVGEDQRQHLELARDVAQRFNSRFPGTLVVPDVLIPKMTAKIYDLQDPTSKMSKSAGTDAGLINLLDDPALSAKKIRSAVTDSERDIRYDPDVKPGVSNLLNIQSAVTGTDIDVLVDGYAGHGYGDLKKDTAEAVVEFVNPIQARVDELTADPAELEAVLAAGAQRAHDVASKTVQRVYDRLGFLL
UniProt P9WNZ1, whole entry: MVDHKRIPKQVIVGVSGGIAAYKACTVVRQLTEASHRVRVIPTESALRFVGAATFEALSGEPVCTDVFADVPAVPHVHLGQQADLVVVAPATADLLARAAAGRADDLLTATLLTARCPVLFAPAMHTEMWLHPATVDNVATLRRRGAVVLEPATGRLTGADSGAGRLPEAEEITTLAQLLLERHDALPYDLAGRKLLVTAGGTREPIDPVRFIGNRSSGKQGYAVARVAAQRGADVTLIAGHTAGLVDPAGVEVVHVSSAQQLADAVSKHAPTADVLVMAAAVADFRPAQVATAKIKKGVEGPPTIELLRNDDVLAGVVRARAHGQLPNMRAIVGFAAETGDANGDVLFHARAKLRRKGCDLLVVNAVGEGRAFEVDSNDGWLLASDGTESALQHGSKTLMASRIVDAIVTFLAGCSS
UniProt P9WPC5, whole entry: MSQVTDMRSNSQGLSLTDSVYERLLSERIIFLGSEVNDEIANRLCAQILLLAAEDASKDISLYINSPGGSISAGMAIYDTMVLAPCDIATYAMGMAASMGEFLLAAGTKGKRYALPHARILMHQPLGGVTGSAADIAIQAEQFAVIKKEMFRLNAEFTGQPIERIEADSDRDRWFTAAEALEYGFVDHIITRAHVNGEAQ
UniProt P9WPC3, whole entry partner: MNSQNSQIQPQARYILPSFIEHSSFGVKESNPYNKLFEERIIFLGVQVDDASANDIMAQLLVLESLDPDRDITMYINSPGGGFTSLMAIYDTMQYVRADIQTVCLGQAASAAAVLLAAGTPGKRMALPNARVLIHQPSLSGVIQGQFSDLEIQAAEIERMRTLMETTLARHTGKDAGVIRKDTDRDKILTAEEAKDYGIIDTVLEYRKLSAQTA

From ChEMBL document CHEMBL3988442, “University of Dundee, Small-Polar-MMV Screening Library” (2021).

Values are the deposited “Percent Effect”, in %.
How 0% and 100% were set is not recorded. Most values in the screen are low, and negative values occur.
Compounds were drawn at random from those tested, without regard to their results.
A dash means the value is not listed here; it may have been measured.

A: 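Tryptophan-tRNA ligase, Mycobacterium tuberculosis (UniProt P9WFT3). Enzyme assay of tryptophanyl-tRNA synthetase; the read-out is not stated. Concentration: 10 µM. Direction is not recorded; retested compounds ran higher, which suggests that high means inhibition. Of about 65,000 compounds tested this way, about 64 (0.098%) reached 50% or more in at least one test.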
B: 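Enzyme assay of CoaBC with a phosphate dye (Biomol Green) read at 650 nm. Target: Coenzyme A biosynthesis protein CoaBC, Mycobacterium tuberculosis (UniProt P9WNZ1). Tested at 30 µM. Direction is inferred from only a few compounds that gave an IC50; most scored high, so higher reads as stronger inhibition. Most strong results did not repeat in a second test. Of about 67,000 compounds tested this way, about 40 (0.06%) reached 50% or more in at least one test.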
C: 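ClpP1P2, Mycobacterium tuberculosis (UniProt P9WPC5 and UniProt P9WPC3). Protease assay of ClpP1P2, read by the AMC dye that it sets free. Concentration: 50 µM. Higher reads as stronger inhibition, judged from the few compounds that gave an IC50. Most other retested compounds had strongly negative values. About 69,000 compounds were tested under these conditions; 0.015% (about 10) showed 50% or more at least once.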

| # | compound | A | B | C |
|---|---|---|---|---|
| 1 | `CC(C)(C)NC(=O)C1(Cc2ccccc2-c2ccncc2)CCOCC1` | 5.49 | -2.596 | -9.621 |
| 2 | `CCc1ncc(C(=O)N2CC(Oc3ccccc3Cl)C2)cn1` | 3.704 | -0.2451 | -7.042 |
| 3 | `CSC(C)CCN1CCCn2nc(CNC(=O)C3CCC3)cc2C1` (stereo not shown) | 1.667 | 4.463 | -15.48 |
| 4 | `Cc1nc2ccc(C(=O)N3CCC(COc4ccccn4)CC3)cc2[nH]1` | 4.606 | 6.527 | 24.27 |
| 5 | `Cc1nocc1C(=O)N1CCc2c(CN(C)C(C)C)n[nH]c2C1` | 1.562 | -14.41 | -5.04 |
| 6 | `COc1cc(CN2CCCC2)ccc1Oc1ncccc1C(F)(F)F` | -1.592 | 5.093 | -25.02 |
| 7 | `CCc1cc(N(C)Cc2ccnc(C)c2)n2nc(C)c(C)c2n1` | 0.6441 | -1.082 | 0.5443 |
| 8 | `O=C(CCNc1ncccn1)NCc1cccc(OC(F)F)c1` | -0.8489 | -5.854 | 8.878 |
| 9 | `O=C(NCC1(CO)CC1)c1nnn(-c2ccc(F)cc2)c1C1CC1` | -3.685 | 9.127 | -17.05 |
| 10 | `CC(Cc1ccsc1)NC(=O)c1cc(N2CCNC2=O)ccc1F` (stereo not shown) | -4.848 | -4.12 | -0.8069 |
| 11 | `CC(=O)NCC(=O)N1CCN(CC2CC2)c2ncccc2C1` | 0.7048 | -9.585 | 4.471 |
| 12 | `CCOCC1c2c(ncn2C)CCN1C(=O)c1ccoc1` (stereo not shown) | - | 4.579 | 6.369 |
| 13 | `N#Cc1ccc(N2CCCC3(CCN(c4cccnc4)CC3)C2)cc1` | -4.521 | -8.261 | -20 |
| 14 | `Cc1cc(CN2C[C@@H]3COC[C@]3(COCc3csc(C)n3)C2)no1` | 2.164 | -7.536 | 14.93 |
| 15 | `O=S1(=O)C[C@@H]2[C@H](C1)N(Cc1nc3ccccc3[nH]1)CCN2CC1CC1` | -0.2549 | 13.55 | 1.996 |
| 16 | `CC(C)NC(=O)N1CCC2(C1)CN(c1ccsc1)C(=O)CN2C` (stereo not shown) | 2.972 | 2.188 | 7.392 |
| 17 | `O=C(Nc1ccc(-n2cccn2)cc1)N1CCC(O)C1` (stereo not shown) | 2.576 | 4.177 | -14.18 |
| 18 | `OC1(CNCCCN2CCCc3ccccc32)CNCCOC1` (stereo not shown) | 1.848 | 1.179 | 4.976 |
| 19 | `O=C1C[C@H]2[C@@H](CCN2C(=O)Cc2cccs2)N1CC1CC1` | -11.05 | 1.673 | -1.129 |
| 20 | `Cc1nc2n(n1)CC(NCc1cnn(-c3ccccc3)n1)CC2` (stereo not shown) | 2.54 | 2.895 | -30.34 |
| 21 | `Cc1oc(-c2ccco2)nc1CC(=O)N1CCN(C2CCC2)CC1` | 0.7037 | 7.692 | 8.181 |
| 22 | `Cc1oc(C(C)C)cc1C(=O)N1C[C@H]2CC[C@@H]1CN(c1ncccn1)C2` | -0.4248 | 9.813 | -10.35 |
| 23 | `Cc1ccccc1CN1CCCN(C(=O)c2ccn(C)c(=O)c2)CC1` | -4.139 | 4.206 | -6.877 |
| 24 | `CC(Cc1c(F)cccc1F)NC(=O)CN(CC(N)=O)C(C)C` (stereo not shown) | -0.5948 | 8.636 | -6.463 |
| 25 | `Cc1cc(N)n(-c2ccc3nnc(C)n3n2)n1` | -2.441 | -2.405 | -13.34 |
| 26 | `CC(C)(C)c1nc(CN(CCO)Cc2cc(Br)ccc2F)no1` | 1.001 | 4.603 | -13.6 |
| 27 | `CC(Nc1ccn(Cc2ccccn2)n1)C(=O)NC(C)(C)C` (stereo not shown) | -0.6938 | -11.81 | 11.5 |
| 28 | `Fc1cccc(-n2nc(C3CC3)nc2CCn2cnnn2)c1` | 3.226 | 1.951 | 1.316 |
| 29 | `COCCNS(=O)(=O)c1cccc2c1CN(C(=O)c1cc(C)on1)CC2` | 18.39 | 11.91 | -0.7591 |
| 30 | `O=C1CC2(CCCCN2C(=O)Cc2ccccc2)CN1c1cccnc1` (stereo not shown) | 0.8364 | -0.9677 | -25.83 |
| 31 | `Cc1nc(C(=O)N2CCC(c3nnc(Cn4ccnc4)n3C)CC2)cs1` | 2.532 | 6.624 | 1.623 |
| 32 | `CCOCCCNC(=O)NC(C)c1ccc(-n2cncn2)cc1` (stereo not shown) | -5.348 | - | 4.01 |
| 33 | `CC(c1nccs1)N(C)S(=O)(=O)NCc1ccccc1` (stereo not shown) | 1.211 | 4.854 | -0.4615 |
| 34 | `Oc1nc(N2CCOCC2)nc2c1CCN(Cc1ccc(F)cc1)CC2` | - | 3.874 | -1.284 |
| 35 | `O=C(c1cc[nH]n1)N1CCc2ncnc(NCc3ccccn3)c2CC1` | 0.3396 | 2.683 | -10.56 |
| 36 | `O=C1CCC2(CCN(Cc3cc(F)ccc3Cl)CC2)CN1C1CCCC1` | 3.197 | 7.589 | 3.689 |
| 37 | `O=C1CC(c2ccncc2)C2(CCN(C(=O)c3ccnnc3)CC2)N1` (stereo not shown) | -4.691 | 4.822 | -10.31 |
| 38 | `CCS(=O)(=O)N1CCc2c(COCCN(C)C)cncc2C1` | - | 2.963 | -0.8782 |
| 39 | `CCc1noc(CN2CCN(CC(O)c3ccccc3)CC2)n1` (stereo not shown) | -4.473 | -0.3817 | -3.988 |
| 40 | `CO[C@H]1CN(C(=O)OC(C)(C)C)CC1NCc1cccn1C` (stereo partly shown) | -1.751 | 1.01 | -2.771 |
| 41 | `COc1ccc(-c2cccc3c2OC(CN)C3)cc1F` (stereo not shown) | 0.3631 | -4.623 | -3.302 |
| 42 | `Cc1nc(CN(C)c2cc(N3CCCC3CO)ncn2)cs1` (stereo not shown) | -5.676 | -11.61 | 3.615 |
| 43 | `O=C(N[C@@H]1CN(Cc2cccs2)[C@@H]2CCCO[C@@H]21)c1cscn1` | -2.278 | 7.818 | -10.27 |
| 44 | `Cc1n[nH]c2c1C(c1ccsc1)SCC(=O)N2` (stereo not shown) | -3.859 | 2.662 | 2.463 |
| 45 | `CCc1cc(=O)[nH]c(-n2nc(C3CC3)cc2NC(=O)C2CC2)n1` | -3.203 | -2.29 | -1.395 |
| 46 | `CCS(=O)(=O)N1CCC(NC(=O)c2cc(C(C)C)ccc2O)CC1` | 2.005 | 1.579 | -10.75 |
| 47 | `COCC(=O)NC1CCN(c2cccc(OC(F)(F)F)c2)C1=O` (stereo not shown) | 0.07241 | 7.851 | 9.368 |
| 48 | `COCc1nnc(NC(=O)c2cn(C(C)C)c3ccc(OC)cc23)s1` | 1.716 | -6.904 | -34.95 |
| 49 | `N#Cc1ccccc1NC(=O)c1ccc2c(c1)OCO2` | -4.28 | -2.375 | -24.85 |
| 50 | `CC(C)c1ncc2c(n1)CN(Cc1nnc(Cc3ccccc3)o1)CC2` | 1.064 | 7.347 | -64.05 |
| 51 | `Cc1n[nH]c(C)c1NC(=O)NCc1ccccn1` | -0.9202 | -174.1 | 0.1167 |
| 52 | `CCC(=O)N1CCC2(COCc3cnc(N4CCOCC4)nc32)C1` (stereo not shown) | 2.346 | 2 | 4.943 |
| 53 | `Cc1cc(C)n(C2CCCN(C(=O)COCC(F)(F)F)C2)n1` (stereo not shown) | 3.192 | 6.218 | 11.18 |
| 54 | `O=C(Cn1nc(C(F)(F)F)c(Cl)c1C1CC1)NN1CCOCC1` | 0.9492 | -0.3797 | -12.55 |
| 55 | `COc1cccc(CN2C[C@H]3CC[C@H]2C3)c1OCCN1CCOCC1` | 3.865 | 4.294 | -8.694 |
| 56 | `Cc1cccnc1CN(C)C(C(=O)O)c1ccc(-c2ccn[nH]2)cc1` (stereo not shown) | 3.633 | 1.491 | -8.677 |
| 57 | `O=C(CCc1ccc(F)cc1)NS(=O)(=O)c1ccc2c(c1)OCCCO2` | -2.968 | -11.16 | -11.69 |
| 58 | `O=C(NCc1nnc2n1CCCCC2)N(CC1CCOC1)C1CC1` (stereo not shown) | -0.7742 | -1.684 | 10.55 |
| 59 | `COc1ncccc1NC(=O)N(Cc1ccc(C(N)=O)cc1)C1CC1` | 25.96 | 4.779 | -17.68 |
| 60 | `Cc1nc(CNC(=O)Nc2cc(F)ccc2N2CCN(C)CC2)no1` | 1.633 | 1.635 | -9.188 |

Once more, the final 4:

{"compound": "O=C(CCc1ccc(F)cc1)NS(=O)(=O)c1ccc2c(c1)OCCCO2", "A": -2.968, "B": -11.16, "C": -11.69}
{"compound": "O=C(NCc1nnc2n1CCCCC2)N(CC1CCOC1)C1CC1", "stereo": "stereo not shown", "A": -0.7742, "B": -1.684, "C": 10.55}
{"compound": "COc1ncccc1NC(=O)N(Cc1ccc(C(N)=O)cc1)C1CC1", "A": 25.96, "B": 4.779, "C": -17.68}
{"compound": "Cc1nc(CNC(=O)Nc2cc(F)ccc2N2CCN(C)CC2)no1", "A": 1.633, "B": 1.635, "C": -9.188}